The values that follow come from the supplement of paper PMC12067093, “Discovery and optimisation of a covalent ligand for TRIM25 and its application to targeted protein ubiquitination” (Chemical Science, 2025).

Chains of the proteins cited; added tags and fusions are not shown. Lines headed by an entry give the natural chain unless they say otherwise; changes in a name come on top.
UniProt Q9Y5V0: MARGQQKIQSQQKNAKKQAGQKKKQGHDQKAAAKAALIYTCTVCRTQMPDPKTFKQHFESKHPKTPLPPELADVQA
UniProt O95159: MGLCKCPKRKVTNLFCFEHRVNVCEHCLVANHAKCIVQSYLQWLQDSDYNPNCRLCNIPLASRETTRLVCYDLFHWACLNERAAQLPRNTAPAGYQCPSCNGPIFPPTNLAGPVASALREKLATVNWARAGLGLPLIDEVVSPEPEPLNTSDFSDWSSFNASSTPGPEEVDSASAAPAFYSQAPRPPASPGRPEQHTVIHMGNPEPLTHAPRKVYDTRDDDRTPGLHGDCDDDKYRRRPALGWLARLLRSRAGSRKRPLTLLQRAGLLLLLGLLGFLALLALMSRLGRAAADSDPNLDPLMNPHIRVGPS
UniProt Q14202: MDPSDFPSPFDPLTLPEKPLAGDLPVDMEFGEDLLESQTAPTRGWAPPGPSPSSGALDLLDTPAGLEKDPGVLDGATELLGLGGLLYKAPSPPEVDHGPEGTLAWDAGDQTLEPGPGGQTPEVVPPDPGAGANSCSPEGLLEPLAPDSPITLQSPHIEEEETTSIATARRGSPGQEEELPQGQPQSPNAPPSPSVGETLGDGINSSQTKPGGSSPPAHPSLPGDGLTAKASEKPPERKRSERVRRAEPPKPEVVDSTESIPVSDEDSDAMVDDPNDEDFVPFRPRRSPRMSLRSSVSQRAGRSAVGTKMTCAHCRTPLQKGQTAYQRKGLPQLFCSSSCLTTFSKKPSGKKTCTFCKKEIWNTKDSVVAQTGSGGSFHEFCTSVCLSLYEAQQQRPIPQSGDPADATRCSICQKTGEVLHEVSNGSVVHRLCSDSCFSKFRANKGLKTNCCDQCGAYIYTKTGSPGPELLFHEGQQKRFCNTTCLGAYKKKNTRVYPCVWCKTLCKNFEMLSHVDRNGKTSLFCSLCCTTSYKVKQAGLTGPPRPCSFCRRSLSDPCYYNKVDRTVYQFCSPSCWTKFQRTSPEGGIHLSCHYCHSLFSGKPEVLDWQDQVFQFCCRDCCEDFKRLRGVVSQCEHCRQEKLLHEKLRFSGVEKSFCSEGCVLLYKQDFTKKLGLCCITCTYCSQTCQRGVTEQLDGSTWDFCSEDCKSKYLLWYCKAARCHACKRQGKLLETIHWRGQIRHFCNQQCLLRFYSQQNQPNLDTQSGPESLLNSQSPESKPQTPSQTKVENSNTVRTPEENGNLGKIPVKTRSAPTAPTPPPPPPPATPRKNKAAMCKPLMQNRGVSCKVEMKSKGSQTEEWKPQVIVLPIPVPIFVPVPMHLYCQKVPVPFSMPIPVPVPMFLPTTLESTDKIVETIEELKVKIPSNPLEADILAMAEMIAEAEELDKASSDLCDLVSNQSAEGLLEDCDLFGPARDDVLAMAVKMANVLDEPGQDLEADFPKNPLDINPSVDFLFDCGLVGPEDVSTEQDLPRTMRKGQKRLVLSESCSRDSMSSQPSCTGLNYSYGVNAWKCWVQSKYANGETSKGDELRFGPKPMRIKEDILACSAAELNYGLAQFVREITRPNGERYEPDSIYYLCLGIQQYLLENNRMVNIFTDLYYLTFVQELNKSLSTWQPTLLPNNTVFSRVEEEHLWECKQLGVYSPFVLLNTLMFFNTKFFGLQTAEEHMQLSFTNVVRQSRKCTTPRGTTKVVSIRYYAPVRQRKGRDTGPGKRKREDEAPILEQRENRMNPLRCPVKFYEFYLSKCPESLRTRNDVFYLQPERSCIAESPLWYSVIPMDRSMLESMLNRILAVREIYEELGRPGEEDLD
UniProt Q96JP5: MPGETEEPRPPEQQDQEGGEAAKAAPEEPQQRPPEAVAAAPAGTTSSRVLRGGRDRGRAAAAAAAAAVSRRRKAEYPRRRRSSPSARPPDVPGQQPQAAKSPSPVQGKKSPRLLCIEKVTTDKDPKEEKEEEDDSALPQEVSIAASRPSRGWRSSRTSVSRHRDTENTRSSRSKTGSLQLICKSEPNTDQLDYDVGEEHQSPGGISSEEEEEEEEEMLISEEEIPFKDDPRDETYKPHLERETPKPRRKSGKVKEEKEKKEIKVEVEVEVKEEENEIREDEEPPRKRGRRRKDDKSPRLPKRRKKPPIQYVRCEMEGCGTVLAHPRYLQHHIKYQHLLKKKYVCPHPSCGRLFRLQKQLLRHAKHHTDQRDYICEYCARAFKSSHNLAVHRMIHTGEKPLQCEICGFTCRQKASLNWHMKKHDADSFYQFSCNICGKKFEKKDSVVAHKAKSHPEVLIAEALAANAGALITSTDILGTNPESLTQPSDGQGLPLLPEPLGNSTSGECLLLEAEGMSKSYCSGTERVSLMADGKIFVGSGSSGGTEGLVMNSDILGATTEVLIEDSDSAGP
UniProt Q9ULU4: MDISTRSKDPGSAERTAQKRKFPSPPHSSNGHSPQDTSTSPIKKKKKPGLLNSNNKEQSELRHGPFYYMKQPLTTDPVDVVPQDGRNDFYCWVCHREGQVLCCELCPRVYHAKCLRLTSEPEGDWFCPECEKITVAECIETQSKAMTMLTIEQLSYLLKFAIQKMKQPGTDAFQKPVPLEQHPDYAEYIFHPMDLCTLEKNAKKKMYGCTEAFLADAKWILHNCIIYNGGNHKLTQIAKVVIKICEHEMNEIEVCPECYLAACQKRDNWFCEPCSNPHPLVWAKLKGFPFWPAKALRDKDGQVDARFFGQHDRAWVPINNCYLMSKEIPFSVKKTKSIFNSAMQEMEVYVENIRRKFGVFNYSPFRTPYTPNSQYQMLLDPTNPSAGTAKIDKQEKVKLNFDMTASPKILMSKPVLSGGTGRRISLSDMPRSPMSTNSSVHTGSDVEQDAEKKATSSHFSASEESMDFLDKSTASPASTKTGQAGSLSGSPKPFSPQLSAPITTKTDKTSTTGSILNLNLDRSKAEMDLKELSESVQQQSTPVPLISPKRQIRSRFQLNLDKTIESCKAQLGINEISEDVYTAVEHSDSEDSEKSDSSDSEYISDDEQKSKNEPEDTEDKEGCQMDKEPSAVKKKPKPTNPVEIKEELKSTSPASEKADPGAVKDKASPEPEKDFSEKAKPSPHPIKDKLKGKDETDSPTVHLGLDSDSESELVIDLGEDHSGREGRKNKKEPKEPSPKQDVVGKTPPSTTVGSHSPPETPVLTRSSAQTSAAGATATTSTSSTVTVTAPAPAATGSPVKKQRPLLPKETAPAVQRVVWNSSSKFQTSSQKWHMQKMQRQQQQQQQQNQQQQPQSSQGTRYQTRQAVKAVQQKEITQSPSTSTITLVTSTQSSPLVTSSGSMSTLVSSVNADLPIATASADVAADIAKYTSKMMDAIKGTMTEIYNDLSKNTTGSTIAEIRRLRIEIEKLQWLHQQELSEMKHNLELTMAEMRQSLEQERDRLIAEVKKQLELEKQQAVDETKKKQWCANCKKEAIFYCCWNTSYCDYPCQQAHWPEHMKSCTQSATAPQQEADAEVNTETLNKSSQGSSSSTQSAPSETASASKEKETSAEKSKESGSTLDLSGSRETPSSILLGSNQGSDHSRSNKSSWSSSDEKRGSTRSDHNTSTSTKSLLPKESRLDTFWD
UniProt Q8ND82: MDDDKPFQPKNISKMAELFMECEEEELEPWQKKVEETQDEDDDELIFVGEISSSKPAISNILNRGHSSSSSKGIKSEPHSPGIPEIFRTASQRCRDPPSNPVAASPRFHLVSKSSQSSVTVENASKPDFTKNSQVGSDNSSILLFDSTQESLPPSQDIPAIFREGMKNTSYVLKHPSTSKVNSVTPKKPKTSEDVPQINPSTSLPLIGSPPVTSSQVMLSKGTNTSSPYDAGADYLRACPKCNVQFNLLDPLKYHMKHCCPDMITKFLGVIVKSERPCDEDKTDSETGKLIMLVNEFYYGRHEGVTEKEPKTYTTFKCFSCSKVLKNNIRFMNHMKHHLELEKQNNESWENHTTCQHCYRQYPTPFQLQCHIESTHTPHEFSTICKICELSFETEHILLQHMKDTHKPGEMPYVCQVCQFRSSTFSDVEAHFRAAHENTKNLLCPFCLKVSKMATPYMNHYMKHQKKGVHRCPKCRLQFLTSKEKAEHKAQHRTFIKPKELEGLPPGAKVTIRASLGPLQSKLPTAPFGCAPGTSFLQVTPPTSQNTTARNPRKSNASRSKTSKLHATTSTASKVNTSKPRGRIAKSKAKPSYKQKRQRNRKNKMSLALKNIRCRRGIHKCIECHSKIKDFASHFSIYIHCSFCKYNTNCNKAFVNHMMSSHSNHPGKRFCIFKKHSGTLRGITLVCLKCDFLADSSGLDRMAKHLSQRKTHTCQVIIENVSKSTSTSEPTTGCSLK
UniProt Q96KR1: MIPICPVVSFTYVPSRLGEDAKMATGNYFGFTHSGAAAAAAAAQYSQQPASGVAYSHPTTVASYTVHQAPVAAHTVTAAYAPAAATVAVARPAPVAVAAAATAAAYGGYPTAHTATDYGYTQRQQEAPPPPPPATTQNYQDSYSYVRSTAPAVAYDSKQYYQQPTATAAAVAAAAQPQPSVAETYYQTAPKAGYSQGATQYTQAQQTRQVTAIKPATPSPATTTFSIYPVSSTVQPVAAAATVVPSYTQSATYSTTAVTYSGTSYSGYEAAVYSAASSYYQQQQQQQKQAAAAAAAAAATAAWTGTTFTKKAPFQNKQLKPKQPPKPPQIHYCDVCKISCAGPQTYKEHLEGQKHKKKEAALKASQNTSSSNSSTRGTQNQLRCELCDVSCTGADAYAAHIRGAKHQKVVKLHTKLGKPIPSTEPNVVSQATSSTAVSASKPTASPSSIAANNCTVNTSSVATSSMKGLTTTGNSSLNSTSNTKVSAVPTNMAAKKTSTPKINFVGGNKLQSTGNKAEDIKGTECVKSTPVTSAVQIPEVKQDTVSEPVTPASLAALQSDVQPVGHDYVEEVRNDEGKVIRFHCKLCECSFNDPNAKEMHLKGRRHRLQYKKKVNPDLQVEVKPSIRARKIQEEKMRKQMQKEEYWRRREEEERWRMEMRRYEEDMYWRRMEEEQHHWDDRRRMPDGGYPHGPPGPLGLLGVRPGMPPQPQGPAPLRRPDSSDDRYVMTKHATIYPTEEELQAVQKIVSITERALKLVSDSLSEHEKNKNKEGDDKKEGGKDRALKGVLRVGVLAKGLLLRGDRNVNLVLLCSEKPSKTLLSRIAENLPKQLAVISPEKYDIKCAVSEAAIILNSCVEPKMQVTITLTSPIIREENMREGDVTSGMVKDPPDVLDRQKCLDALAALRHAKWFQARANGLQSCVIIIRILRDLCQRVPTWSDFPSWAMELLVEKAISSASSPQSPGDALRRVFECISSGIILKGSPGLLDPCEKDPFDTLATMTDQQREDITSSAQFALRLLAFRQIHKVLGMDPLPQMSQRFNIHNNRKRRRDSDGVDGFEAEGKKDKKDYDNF
UniProt P52747: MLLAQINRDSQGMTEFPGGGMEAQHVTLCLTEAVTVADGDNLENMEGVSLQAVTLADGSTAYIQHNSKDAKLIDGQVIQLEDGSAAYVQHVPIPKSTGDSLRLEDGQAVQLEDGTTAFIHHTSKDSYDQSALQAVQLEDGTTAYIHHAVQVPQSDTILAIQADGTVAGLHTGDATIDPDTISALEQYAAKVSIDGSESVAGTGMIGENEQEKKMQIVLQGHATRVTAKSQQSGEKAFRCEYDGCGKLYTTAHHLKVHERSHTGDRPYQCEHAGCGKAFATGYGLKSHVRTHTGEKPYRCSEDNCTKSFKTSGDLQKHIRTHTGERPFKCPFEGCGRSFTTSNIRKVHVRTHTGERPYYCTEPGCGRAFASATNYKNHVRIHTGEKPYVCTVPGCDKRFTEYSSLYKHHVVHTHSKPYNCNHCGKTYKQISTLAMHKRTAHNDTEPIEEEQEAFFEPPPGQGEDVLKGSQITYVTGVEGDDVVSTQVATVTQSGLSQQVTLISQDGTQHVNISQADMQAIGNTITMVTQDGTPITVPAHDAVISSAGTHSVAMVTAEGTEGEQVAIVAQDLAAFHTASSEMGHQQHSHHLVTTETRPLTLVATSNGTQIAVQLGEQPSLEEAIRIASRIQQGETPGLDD
UniProt O75844: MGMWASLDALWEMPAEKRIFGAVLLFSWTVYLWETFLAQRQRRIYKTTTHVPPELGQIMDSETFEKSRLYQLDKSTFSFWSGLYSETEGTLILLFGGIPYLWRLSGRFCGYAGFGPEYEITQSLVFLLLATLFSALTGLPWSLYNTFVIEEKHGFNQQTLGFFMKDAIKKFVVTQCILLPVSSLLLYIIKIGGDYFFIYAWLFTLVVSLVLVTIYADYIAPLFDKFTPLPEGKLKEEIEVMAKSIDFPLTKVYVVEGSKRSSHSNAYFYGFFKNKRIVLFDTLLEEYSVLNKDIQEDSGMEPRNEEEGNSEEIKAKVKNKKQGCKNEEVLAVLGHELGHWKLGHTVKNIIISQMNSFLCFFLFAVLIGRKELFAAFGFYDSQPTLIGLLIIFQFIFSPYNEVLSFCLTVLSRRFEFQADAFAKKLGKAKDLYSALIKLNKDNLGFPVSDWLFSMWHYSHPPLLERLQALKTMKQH

The other results are listed elsewhere or left out.
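Note: competitive profiling in live THP-1 cells: cysteine peptides tagged with an iodoacetamide desthiobiotin (IA-DTB) probe, intensity after compound treatment relative to DMSO-treated cells.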

Compound in the test: Cc1cc(ccc1-c1ccccc1)C(=O)N1CCCN(CC1)C(=O)CCl [compound 10]
The experiment in a line: probe-labelled cysteine peptide fold change vs DMSO (competition) (log2 fold change); higher = less target engagement (more negative = stronger competition). Particulars: 10 µM; THP-1; incubation time: 4 h.
“ZNF76_P36508_342_HHVVHTHCK (UniProt P36508)”: the “probe-labelled cysteine peptide fold change” value was -0.115.
The figure for “ZNF706_Q9Y5V0_44_AALIYTCTVCR (UniProt Q9Y5V0)” is 0.32; for “ZFPL1_O95159_16_VTNLFCFEHR (UniProt O95159)” it is 0.0473.
The figure for “ZNF618_Q5T7W0_668_SMHEVIELLNVCEDLAGSTGLAK (UniProt Q5T7W0)” is 0.279; for “ZMIZ1_Q9ULJ6_763_HVQCFDLESYLQLNCER (UniProt Q9ULJ6)” it is -0.0815; for “ZMYM3_Q14202_747_HFCNQQCLLR (UniProt Q14202)” it is 0.0032.
The figure for “ZFP91_Q96JP5_182_TGSLQLICK (UniProt Q96JP5)” is -0.314.
For “ZNF598_Q86UK7_867_VCPTCQQVLAHGDASSHQALHAAR (UniProt Q86UK7)”, the “probe-labelled cysteine peptide fold change” value is 0.228.
For “ZMYND8_Q9ULU4_91_NDFYCWVCHR (UniProt Q9ULU4)” the value was 0.0594; for “ZNF280C_Q8ND82_388_ICELSFETEHILLQHMK (UniProt Q8ND82)”, 0.00547; for “ZNF292_O60281_2260_CDCEGCDR (UniProt O60281)”, 0.0987.
The figure for “ZNF579_Q8NAF0_77_LSHSGLRPHACPLCPK (UniProt Q8NAF0)” is 0.112; for “ZFR_Q96KR1_387+391_CELCDVSCTGADAYAAHIR (UniProt Q96KR1)” it is 0.0131; for “ZNF629_Q9UEG4_214_CFSWSSNLVQHQR (UniProt Q9UEG4)” it is -0.0842.
In the case of “ZNF106_Q9H2Y7_1131_IQILQGLQETYEPSEHPDQVPCSLTR (UniProt Q9H2Y7)”, the “probe-labelled cysteine peptide fold change” value stood at 0.0774.
In the case of “ZNF274_Q96GC6_361_DCALSSTLEDTLQGGVQEVQDTVLK (UniProt Q96GC6)”, the “probe-labelled cysteine peptide fold change” value is 0.16.
For the target “ZNF592_Q92610_201_FPVPELHMFDHFCK (UniProt Q92610)”, the “probe-labelled cysteine peptide fold change” value is -0.148.
“ZNF580_Q9UK33_122+125_VSHSDLKPFTCGACGK (UniProt Q9UK33)”: the “probe-labelled cysteine peptide fold change” value amounted to 0.0688.
As for “ZFYVE16_Q7Z3T8_292_EEVDVAVITAAECLK (UniProt Q7Z3T8)”, the “probe-labelled cysteine peptide fold change” value was -0.374.
The figure for “ZMYND8_Q9ULU4_567_TIESCK (UniProt Q9ULU4)” is -0.0635; for “ZNF691_Q5VV52_260_THTGERPYECTECGR (UniProt Q5VV52)” it is 0.396.
As for “ZNF746_Q6NUN9_518_CFTRPAHLIR (UniProt Q6NUN9)”, the “probe-labelled cysteine peptide fold change” value was 0.201.
For “ZNF512_Q96ME7_442_CLLCQK (UniProt Q96ME7)” the value was -0.143; for “ZNF326_Q5BKZ1_360_VVMEFLHECMVNK (UniProt Q5BKZ1)”, 0.097.
With “ZNF692_Q9BU19_235_LLPSPVTCTPK (UniProt Q9BU19)”, the “probe-labelled cysteine peptide fold change” value was -0.333.
Take “ZNF668_Q96K58_198_THAGLRPYSCER (UniProt Q96K58)”: the “probe-labelled cysteine peptide fold change” value is 0.165.
As for “ZFP91_Q96JP5_313_CEMEGCGTVLAHPR (UniProt Q96JP5)”, the “probe-labelled cysteine peptide fold change” value turned out to be 0.0458.
The figure for “ZNF143_P52747_364_THTGERPYYCTEPGCGR (UniProt P52747)” is 0.155; for “ZMYM3_Q14202_968_ASSDLCDLVSNQSAEGLLEDCDLFGPAR (UniProt Q14202)” it is 0.133.
The figure for “ZFR_Q96KR1_974_RVFECISSGIILK (UniProt Q96KR1)” is 0.0134; for “ZNF609_O15014_178_SEGVGTCSEK (UniProt O15014)” it is 0.1; for “ZNF638_Q14966_652_NLEDDTLSECK (UniProt Q14966)” it is -0.255.
The figure for “ZMYM3_Q14202_436_LCSDSCFSK (UniProt Q14202)” is -0.166; for “ZNF451_Q9Y4E5_133_LCVDQWLK (UniProt Q9Y4E5)” it is 0.00075; for “ZMPSTE24_O75844_324_QGCKNEEVLAVLGHELGHWK (UniProt O75844)” it is -0.369.
